Results on one molecule are retold here after patent US10774143 (LA JOLLA INSTITUTE FOR ALLERGY AND IMMUNOLOGY, dated 2020).

The target in this experiment is T1, SWAP-70-like adaptor of T cells (SLAT), endogenous mouse protein (mouse, UniProt Q8C2K1 1-630).
T1 construct: Endogenous full-length protein, immunoprecipitated or pulled down from lysates of stimulated mouse T cells; also called Def6; IBP
As to the kind of experiment: GST pull-down of SLAT from stimulated T cell lysates.

B1: GST-IP3R1-f2.1 Δ18 (residues 346-490 deleted of residues 400-417) (other, not shown: a dimerising Fc or GST; small tags and cut ends)
chain: NAQEKMVYSLVSVPEGNDISSIFELDPTTLRGGDSLVPRNSYVRLRHLCTNTWVIGTSPVKEDKEAFAIVPVSPAEVRDLDFANDASKVLGSIAGKLEKGTITQNERRSVTKLLEDLVYFVTGGTNS
For the molecule B1, the binding result is recorded as “no binding”.
